Assay results published in paper PMC12255776.
These are yes or no findings as the source states them, for the method shown. For some of these results: In cells and extracts the contact can be indirect. Some results given as binding are weak or reduced against the parent protein; the word gives no strength. For some of these results: Tags and fused reporters may be left off the sequences shown.

Protein sequences, listed by entry. Tags and fused reporters are not part of them. Lines headed by an entry give the natural chain unless they say otherwise; changes in a name come on top. Residues count along the entry.
UniProt Q86U44: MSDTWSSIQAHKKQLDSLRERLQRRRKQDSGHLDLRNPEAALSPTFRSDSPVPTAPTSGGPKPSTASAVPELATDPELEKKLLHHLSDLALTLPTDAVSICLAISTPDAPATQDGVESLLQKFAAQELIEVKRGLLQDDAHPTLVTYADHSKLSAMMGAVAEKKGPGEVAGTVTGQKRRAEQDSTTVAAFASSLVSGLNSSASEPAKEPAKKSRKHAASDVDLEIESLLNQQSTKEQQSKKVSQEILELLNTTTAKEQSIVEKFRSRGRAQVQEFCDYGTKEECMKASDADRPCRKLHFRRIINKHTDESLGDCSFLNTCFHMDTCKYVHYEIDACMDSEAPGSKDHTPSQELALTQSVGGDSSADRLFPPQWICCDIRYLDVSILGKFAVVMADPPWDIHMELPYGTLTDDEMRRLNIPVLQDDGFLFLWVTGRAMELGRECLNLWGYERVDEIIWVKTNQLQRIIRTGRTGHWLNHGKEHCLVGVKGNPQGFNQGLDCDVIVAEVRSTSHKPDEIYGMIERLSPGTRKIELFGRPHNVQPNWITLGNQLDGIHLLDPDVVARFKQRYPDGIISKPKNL
Flag-METTL3 ΔN (N-terminal truncated, 260–580 aa): residues 260-580 of Q86U44
UniProt Q969H0: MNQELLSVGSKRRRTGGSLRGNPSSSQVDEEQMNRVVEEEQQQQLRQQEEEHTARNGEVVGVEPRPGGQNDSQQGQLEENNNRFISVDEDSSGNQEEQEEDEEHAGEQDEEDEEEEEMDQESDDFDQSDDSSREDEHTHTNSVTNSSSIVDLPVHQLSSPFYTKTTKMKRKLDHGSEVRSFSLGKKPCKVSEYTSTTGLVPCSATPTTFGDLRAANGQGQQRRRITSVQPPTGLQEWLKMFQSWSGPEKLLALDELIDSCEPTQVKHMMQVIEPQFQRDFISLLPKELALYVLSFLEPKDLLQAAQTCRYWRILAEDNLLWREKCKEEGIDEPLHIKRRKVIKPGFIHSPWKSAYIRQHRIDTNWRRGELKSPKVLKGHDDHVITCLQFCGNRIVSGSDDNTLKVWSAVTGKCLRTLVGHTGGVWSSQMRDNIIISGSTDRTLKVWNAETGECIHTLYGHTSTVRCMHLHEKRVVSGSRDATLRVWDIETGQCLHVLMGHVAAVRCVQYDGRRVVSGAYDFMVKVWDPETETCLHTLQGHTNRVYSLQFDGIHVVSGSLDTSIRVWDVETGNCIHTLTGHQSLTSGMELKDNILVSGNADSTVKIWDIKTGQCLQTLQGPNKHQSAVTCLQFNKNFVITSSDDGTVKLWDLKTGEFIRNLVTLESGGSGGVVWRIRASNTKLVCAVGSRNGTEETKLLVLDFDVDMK

Tests used:
[1] = target: Flag-METTL3 wild type (full-length human METTL3 in pSEB-3×Flag) (human) (UniProt Q86U44); test: co-IP; Huh-7 cells cotransfected with HA-tagged and Flag-tagged plasmids, 48 h; precleared lysates (50 mM Tris-HCl pH 8.0, 150 mM NaCl, 5 mM EDTA, 0.5% Triton X-100, 0.1% sodium deoxycholate) with anti-Flag or anti-HA antibodies overnight, protein A/G magnetic beads 4 h, immunoblot; for WTAP also with TMG or OSMI-1 treatment of the cells
[2] = target: Flag-METTL3 3A mutant (T186A/S192A/S193A) (human) (UniProt Q86U44); test: as above
[3] = target: METTL3 (methyltransferase-like 3), endogenous (human (endogenous in Huh-7)) (UniProt Q86U44); test: co-IP; endogenous METTL3 and OGT in Huh-7 cells
[4] = target: Flag-METTL3 wild type (full-length human METTL3 in pSEB-3×Flag) (human) (UniProt Q86U44); test: co-IP; HA-OGT and Flag-METTL3 (WT, ΔC, ΔN) in HEK293 cells
[5] = target: Flag-METTL3 ΔN (N-terminal truncated, 260–580 aa) (human) (UniProt Q86U44); test: as above
[6] = target: Flag-METTL3 wild type (full-length human METTL3 in pSEB-3×Flag) (human) (UniProt Q86U44); test: co-IP; Huh-7 cells cotransfected with HA-tagged and Flag-tagged plasmids, 48 h; precleared lysates (50 mM Tris-HCl pH 8.0, 150 mM NaCl, 5 mM EDTA, 0.5% Triton X-100, 0.1% sodium deoxycholate) with anti-Flag or anti-HA antibodies overnight, protein A/G magnetic beads 4 h, immunoblot; for WTAP also with TMG or OSMI-1 treatment of the cells; remark: listed apart in the source
[7] = target: METTL3 of the in vitro GST pull-down (human) (UniProt Q86U44); test: pull-down; GST pull-down in vitro; immunoblot and Coomassie blue staining; both purified

**Q.** What does the source list for HA-FBXW7 (from UniProt Q969H0 1-707)?
**A.** binding [1]: binds; binding [2]: binds

B1: OGT, endogenous (enzyme, UniProt O15294 1-1046)
chain: MASSVGNVADSTEPTKRMLSFQGLAELAHREYQAGDFEAAERHCMQLWRQEPDNTGVLLLLSSIHFQCRRLDRSAHFSTLAIKQNPLLAEAYSNLGNVYKERGQLQEAIEHYRHALRLKPDFIDGYINLAAALVAAGDMEGAVQAYVSALQYNPDLYCVRSDLGNLLKALGRLEEAKACYLKAIETQPNFAVAWSNLGCVFNAQGEIWLAIHHFEKAVTLDPNFLDAYINLGNVLKEARIFDRAVAAYLRALSLSPNHAVVHGNLACVYYEQGLIDLAIDTYRRAIELQPHFPDAYCNLANALKEKGSVAEAEDCYNTALRLCPTHADSLNNLANIKREQGNIEEAVRLYRKALEVFPEFAAAHSNLASVLQQQGKLQEALMHYKEAIRISPTFADAYSNMGNTLKEMQDVQGALQCYTRAIQINPAFADAHSNLASIHKDSGNIPEAIASYRTALKLKPDFPDAYCNLAHCLQIVCDWTDYDERMKKLVSIVADQLEKNRLPSVHPHHSMLYPLSHGFRKAIAERHGNLCLDKINVLHKPPYEHPKDLKLSDGRLRVGYVSSDFGNHPTSHLMQSIPGMHNPDKFEVFCYALSPDDGTNFRVKVMAEANHFIDLSQIPCNGKAADRIHQDGIHILVNMNGYTKGARNELFALRPAPIQAMWLGYPGTSGALFMDYIITDQETSPAEVAEQYSEKLAYMPHTFFIGDHANMFPHLKKKAVIDFKSNGHIYDNRIVLNGIDLKAFLDSLPDVKIVKMKCPDGGDNADSSNTALNMPVIPMNTIAEAVIEMINRGQIQITINGFSISNGLATTQINNKAATGEEVPRTIIVTTRSQYGLPEDAIVYCNFNQLYKIDPSTLQMWANILKRVPNSVLWLLRFPAVGEPNIQQYAQNMGLPQNRIIFSPVAPKEEHVRRGQLADVCLDTPLCNGHTTGMDVLWAGTPMVTMPGETLASRVAASQLTCLGCLELIAKNRQEYEDIAVKLGTDLEYLKKVRGKVWKQRISSPLFNTKQYTMELERLYLQMWEHYAAGNKPDHMIKPVEVTESA
**Q.** B1 was tested. Which binding [3] did it give?
**A.** binds

B2: HA-OGT (enzyme, UniProt O15294 1-1046)
chain: B1 chain
**Q.** B2 was tested. Which binding [4] did it give?
**A.** binds

**Q.** What about the binding [5] of the same molecule?
**A.** binds

**Q.** What about the binding [6] of the same molecule?
**A.** binds

B3: OGT of the in vitro GST pull-down (enzyme, UniProt O15294 1-1046)
chain: B1 chain
**Q.** With B3 as the molecule, how does the binding [7] read?
**A.** binds
